This note sets out measurements from paper PMC12040169 (PLOS Biology, 2025).

Some of the results follow.

The assay concerns T1, CTL2-GFP (C. trachomatis L2/434/Bu, GFP-expressing).
T1 construct: L2/434/Bu, GFP-expressing
Details: species or system HeLa; Intracellular C. trachomatis growth in HeLa cells, bulk GFP fluorescence relative to DMSO. Conditions: bulk GFP, single well; 28.5 h, 10 µM; inhibitor.
In the case of `Cc1cccc(N2CCN(CC(=O)Nc3cc(Cl)ccc3C#N)CC2)c1` [CBK306055], the “% of control remaining” value was 86.0847%.

Take `Cc1ccc(SCCNS(=O)(=O)c2ccc3ccccc3c2)cc1` [CBK267504]: the “% of control remaining” value was 130.611%.

On to `Cc1cc2c(=O)n(Cc3ccco3)c(SCc3cc(O)[nH]n3)nc2s1` [CBK268291], for which the “% of control remaining” value is on record as 157.213%.

Regarding `CN(C)S(=O)(=O)N1CCN(C(=O)N(c2ccccc2)c2ccccc2)CC1` [CBK267466], the “% of control remaining” value was found to be 142.453%.

Take `Nc1ncc(-c2cc(C(F)(F)F)cc(C(F)(F)F)c2)nc1-c1ccc(O)cc1` [CBK122503]: the “% of control remaining” value came to 88.0823%.

`COc1cc(/C=C/C(=O)O)ccc1OCC(=O)Nc1ccccc1` [CBK265695]: the “% of control remaining” value is on record as 100%.

Take `CCCCc1ccc(NC(=O)Nc2ccc3ccc(Cl)nc3n2)cc1` [CBK063259]: the “% of control remaining” value worked out at 74.6006%.

As for `CC(C)CCCC(C)NC(=O)COc1cc(C(=O)O)cc(C(=O)O)c1` (stereo not drawn) [CBK296646], the “% of control remaining” value worked out at 150.487%.

Regarding `CCn1c(C)nc2cc(NC(=O)c3oc(C)nc3C)ccc21` [CBK281881], the “% of control remaining” value is reported as 130.46%.

As for `Cc1ccc(NC(=O)N(CCC#N)C2CCCCC2)cc1` [CBK156381], the “% of control remaining” value was determined as 99.0999%.

With `NC(=O)CN1CC2(CCN(Cc3cccc4cccnc34)CC2)c2ccccc21` [CBK137021], the “% of control remaining” value is given as 78.9176%.

For the compound `COc1cc(Br)cc(C2NC(=O)c3cnc(SC)nc3N2)c1O` (stereo not drawn) [CBK291179], the “% of control remaining” value was 121.018%.

Regarding `COc1ccc(C(=O)c2sc3nc(C)c(C)c(C)c3c2N)cc1OC` [CBK074427], the “% of control remaining” value worked out at 113.176%.

Regarding `COCCNc1nc(-c2ccc3[nH]ccc3c2)ccc1C(=O)N1CCN(C)CC1` [CBK105956], the “% of control remaining” value is reported as 128.021%.

Turning to `CCc1nn(C)c2[nH]nc(NC(=O)Cc3csc(C)n3)c12` [CBK305538], the “% of control remaining” value is 115.559%.

With `O=C(O)c1ccc(OCC(O)Cn2nnc3ccccc32)cc1` (stereo not drawn) [CBK286616], the “% of control remaining” value was found to be 114.205%.

`O=C(c1ccco1)N1CCN(C2C3CCCC2CNC3)CC1` (stereo not drawn) [CBK284992]: the “% of control remaining” value worked out at 136.731%.

Take `Cc1oc2c(c1C(=O)NCC(=O)NCC(=O)O)CCCC2` [CBK264015]: the “% of control remaining” value came to 100%.

Turning to `O=C(CN1CCC(O)(c2ccccc2F)CC1)N1CCCCC1` [CBK281938], the “% of control remaining” value is on record as 102.853%.

With `COc1ccccc1-c1ccccc1CN(C)Cc1ccccc1N1CCOCC1` [CBK286000], the “% of control remaining” value worked out at 117.398%.

For the compound `COc1ccc(C2(CNC(C)(C)CN)CCCC2)cc1OC` [CBK008989], the “% of control remaining” value is recorded as 123.674%.

Consider `O=C(COc1ccccc1[N+](=O)[O-])Nc1cc(C(=O)O)cc(C(=O)O)c1` [CBK263983], for which the “% of control remaining” value worked out at 124.77%.

For `COCCCNC(=O)Cn1c(-c2cccs2)cc2cccnc21` [CBK282559], the “% of control remaining” value amounted to 119.431%.

Regarding `O=C(Cc1ccccc1)Nc1nnc(Cc2ccc3c(c2)OCCO3)o1` [CBK287661], the “% of control remaining” value is reported as 118.703%.

Regarding `Cc1nn(C(C)C(=O)Nc2cc(C(F)(F)F)ccc2Cl)c(C)c1[N+](=O)[O-]` (stereo not drawn) [CBK268697], the “% of control remaining” value is 133.38%.

On to `O=C(NC1CCCC1)c1ccc(=O)[nH]c1` [CBK058093], for which the “% of control remaining” value came to 116.373%.

Regarding `COc1ccc(S(=O)(=O)NC(CCSC)c2nnc3ccccn23)cc1` (stereo not drawn) [CBK304402], the “% of control remaining” value is reported as 107.479%.

For `CCC(CN1CCCC1)NC(=O)C1CC(=O)Nc2ccccc21` (stereo not drawn) [CBK282757], the “% of control remaining” value was determined as 128.976%.

Regarding `OCCN(CCO)c1ccccc1N(CCO)CCO` [CBK009141], the “% of control remaining” value was 131.938%.

On to `CC(NC(=O)N(Cc1ccc(CN)cc1)Cc1ccc2ccccc2c1)c1cccc2ccccc12` (stereo not drawn) [CBK046092C], for which the “% of control remaining” value was 72.5448%.

With `COc1ccc([N+](=O)[O-])c(Oc2ccccc2OCc2ccccc2)n1` [CBK002753], the “% of control remaining” value turned out to be 71.18%.

As for `Oc1nc2cccnc2cc1-c1ccc2c(c1)OCCCO2` [CBK081299], the “% of control remaining” value is 174.494%.

In the case of `CCc1nc2n(n1)CC(NC1CCCc3ccccc31)CC2` (stereo not drawn) [CBK304837], the “% of control remaining” value is reported as 88.9165%.

For the compound `COc1ccc([N+](=O)[O-])cc1NC(=O)Nc1ccc(Cl)c(Cl)c1` [CBK267593], the “% of control remaining” value was determined as 125.991%.

As to `O=S(=O)(c1ccc(-n2cnc(Cl)c2Cl)cc1)N1CCCN(Cc2csc(-c3ccccc3)n2)CC1` [CBK062790], the “% of control remaining” value is given as 99.9508%.

`Cc1ccc(Cl)cc1N(CC(=O)O)S(=O)(=O)c1ccccc1` [CBK262424]: the “% of control remaining” value is listed as 126.794%.

As for `O=C(O)c1cccc(CSc2nnc(-c3ccccc3)c(-c3ccccc3)n2)c1` [CBK269165], the “% of control remaining” value was determined as 119.43%.

In the case of `O=C(CSc1nc2cccnc2[nH]1)Nc1cccc(F)c1` [CBK270113], the “% of control remaining” value is recorded as 139.875%.

`CCC(=O)N1CCC2(CCCC[C@H]3CN(C(C)=O)CC[C@H]3NC(=O)CNC2=O)CC1` [CBK292147]: the “% of control remaining” value is listed as 113.755%.

As for `Cc1onc(-c2ccccc2)c1CNC(=O)[C@@H]1CCCN1C` [CBK144077], the “% of control remaining” value is given as 105.974%.

Turning to `Cn1c(N2CCC(C(=O)NC3CC3)CC2)nc2ccccc21` [CBK283940], the “% of control remaining” value turned out to be 124.49%.

For the compound `CC(=O)Nc1ccc(Oc2cc(C)nc(C3CCNCC3)c2)cc1` [CBK283468], the “% of control remaining” value was found to be 149.492%.

With `COc1ccc2[nH]c3c(c2c1)CCN(CC(C)O)C31CCN(CCOc2ccccc2)C1` (stereo not drawn) [CBK084612T], the “% of control remaining” value is on record as 53.4395%.

Consider `CN(C)CCN(C(=O)Cc1ccc2c(c1)CCC2)C1CCN(C)CC1` [CBK282182], for which the “% of control remaining” value worked out at 139.685%.

In the case of `COc1cc([N+](=O)[O-])c2[nH]c(C(=O)O)c(CCNC(C)=O)c2c1` [CBK260895], the “% of control remaining” value is reported as 114.208%.

On to `Cn1c(=O)c2c(nc(N3CCOCC3)n2CCC/N=C2\CCCCN2)n(C)c1=O` [CBK218356], for which the “% of control remaining” value is listed as 128.055%.

Regarding `CCN1C(=O)c2ccccc2C(=O)[C@@]2(C)CN(C(=O)C(C)C)C[C@@H]12` [CBK281680], the “% of control remaining” value worked out at 130.1%.

For `CCOc1ccc(-c2cncc(NCCc3ccncc3)n2)cc1` [CBK065774], the “% of control remaining” value came to 192.74%.

Turning to `CC(C)(C)c1cc(C[C@H]2CNCC[C@H]2CC(=O)Nc2nccs2)no1` [CBK288798], the “% of control remaining” value came out at 125.936%.

`Cc1cc(I)ccc1OCCCCN1CCN(C)CC1` [CBK269652C]: the “% of control remaining” value is 140.927%.

As to `O=C(NCc1ccncc1)C1CCCN(c2nc3c(-c4ccccc4)csc3c(=O)[nH]2)C1` (stereo not drawn) [CBK215493], the “% of control remaining” value came to 108.839%.
